{"source": "patent US10772896B2", "about": "“Process for preparing a dry powder formulation comprising an anticholinergic, a corticosteroid and a beta-adrenergic” (CHIESI FARMACEUTICI S.P.A., priority 2015, dated 2020)", "assay": "Uniformity of distribution of the active ingredients in the blend (10 samples, HPLC)", "assay_type": "physicochemical", "conditions": "dry powder formulation of Example 2; mean value ± RSD", "method": "The uniformity of distribution of the active ingredients was evaluated by withdrawing 10 samples from different parts of the blend and evaluated by HPLC", "data": [{"smiles": "C[N+]1(C)CCC(OC(=O)C(O)(c2ccccc2)C2CCCC2)C1", "note": "(stereo not shown) [GB, Glycopyrronium bromide]", "values": [{"measurement": "Uniformity of distribution", "value": "101.4 (±1.6)"}]}]}
